Values from PubChem BioAssay AID602196 (INSERM, 2012)

Assay: 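Modifiers of cisplatin sensitivity in A549 cells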
Cells: human A549 lung cancer cells
Knock-down reagent: siRNA pair against human genes
Duration: 48 h transfection before cisplatin; time from cisplatin to read-out not stated
Conditions: cisplatin at a dose killing half of control-siRNA cells; exact dose and duration not given
Detection: 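Shift in cisplatin death relative to control siRNA, from -50 (all cells die) to +50 (no cells die); siRNAs harmful on their own scored 0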
Reading the numbers: two-siRNA summed score (-2 to +2): higher = both siRNAs protect from cisplatin killing; -2 means both sensitise
Rule for the call: 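siRNAs harmful alone (LDH or WST-1) get 0; others get +1 for less and -1 for more cisplatin killing; genes are active when the two siRNAs give the same sign, summing to ±2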
Calls: active = both siRNAs shift cisplatin killing the same way; inactive = no consistent shift, or siRNA harmful alone
Shown is an unselected part of about 23,000 reagents tested. Of all reagents, 455 (2%) were called active. 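Active includes both protection and sensitisation; some change values fall well beyond the stated -50 to +50 range.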 Unmarked entries are inactive. Not all columns of the deposit are shown. Not given: the amount of reagent.

LOC391783 | two-siRNA summed score (-2 to +2): 0
SIRPB1 (GeneID 10326) | two-siRNA summed score (-2 to +2): 0
LOC400508 | two-siRNA summed score (-2 to +2): 1
ZNF442 (GeneID 79973) | two-siRNA summed score (-2 to +2): 0
LOC284158 | two-siRNA summed score (-2 to +2): 0
F13A1 (GeneID 2162) | two-siRNA summed score (-2 to +2): 0
FHDC1 (GeneID 85462) | two-siRNA summed score (-2 to +2): 0
TNFAIP1 (GeneID 7126) | two-siRNA summed score (-2 to +2): 0
RAPSN (GeneID 5913) | two-siRNA summed score (-2 to +2): 0
CTTNBP2NL (GeneID 55917) | two-siRNA summed score (-2 to +2): 0
NIPSNAP1 (GeneID 8508) | two-siRNA summed score (-2 to +2): -1
STKLD1 (GeneID 169436) | two-siRNA summed score (-2 to +2): 0
LOC285638 (GeneID 285638) | two-siRNA summed score (-2 to +2): 0
TTC19 (GeneID 54902) | two-siRNA summed score (-2 to +2): 0
TPM1 (GeneID 7168) | two-siRNA summed score (-2 to +2): 0
OSBPL9 (GeneID 114883) | two-siRNA summed score (-2 to +2): 1
LERFS (GeneID 403323) | two-siRNA summed score (-2 to +2): 1
OR51A7 (GeneID 119687) | two-siRNA summed score (-2 to +2): 0
NHLRC1 (GeneID 378884) | two-siRNA summed score (-2 to +2): 1
CRK (GeneID 1398) | two-siRNA summed score (-2 to +2): 0

Laid out differently: results already given
| target gene | two-siRNA summed score (-2 to +2) |
| --- | --- |
| LOC285638 (GeneID 285638) | 0 |
| TTC19 (GeneID 54902) | 0 |
| TPM1 (GeneID 7168) | 0 |
| OSBPL9 (GeneID 114883) | 1 |
| LERFS (GeneID 403323) | 1 |

The listing continues:
WNT8A (GeneID 7478) | two-siRNA summed score (-2 to +2): 0
AXIN1 (GeneID 8312) | two-siRNA summed score (-2 to +2): 0
KIR3DL2 (GeneID 3812) | two-siRNA summed score (-2 to +2): 0
FLJ16686 | two-siRNA summed score (-2 to +2): 0
FBL (GeneID 2091) | two-siRNA summed score (-2 to +2): 0
ALAD (GeneID 210) | two-siRNA summed score (-2 to +2): 0
LINC01107 (GeneID 151171) | two-siRNA summed score (-2 to +2): 0
SCAP (GeneID 22937) | two-siRNA summed score (-2 to +2): 0
GUCY1A2 (GeneID 2977) | two-siRNA summed score (-2 to +2): -1
ADGRG5 (GeneID 221188) | two-siRNA summed score (-2 to +2): 0
RHBDL3 (GeneID 162494) | two-siRNA summed score (-2 to +2): -1
ALG2 (GeneID 85365) | two-siRNA summed score (-2 to +2): 1
CCR4 (GeneID 1233) | two-siRNA summed score (-2 to +2): 0
MORC4 (GeneID 79710) | two-siRNA summed score (-2 to +2): 0
KCTD1 (GeneID 284252) | two-siRNA summed score (-2 to +2): 1
ICOSLG (GeneID 23308) | two-siRNA summed score (-2 to +2): 0
LINC00602 (GeneID 441177) | two-siRNA summed score (-2 to +2): 0
WDTC1 (GeneID 23038) | two-siRNA summed score (-2 to +2): 0
AGA-DT (GeneID 285500) | two-siRNA summed score (-2 to +2): 0
AMMECR1 (GeneID 9949) | two-siRNA summed score (-2 to +2): 0
